According to paper PMC12273628, “In vitro reconstitution of a minimal human centrosome scaffold capable of forming and clustering microtubule asters” (Journal of Cell Science, 2025):
Results are given in words; binding and its absence hold for the method and conditions named.

The chains behind the UniProt entries cited, without tags or fusion partners. Where a name states a change or a piece, a line headed by the entry shows the natural chain unless it says otherwise. A line that says so, or that is headed by a name, gives the form on record, which may keep a tag or linker.
GFP::CDK5RAP2 isoform B, full length, wild type (assembled into micron-scale scaffolds with anti-CM2 IgM) (Q96SN8, form named): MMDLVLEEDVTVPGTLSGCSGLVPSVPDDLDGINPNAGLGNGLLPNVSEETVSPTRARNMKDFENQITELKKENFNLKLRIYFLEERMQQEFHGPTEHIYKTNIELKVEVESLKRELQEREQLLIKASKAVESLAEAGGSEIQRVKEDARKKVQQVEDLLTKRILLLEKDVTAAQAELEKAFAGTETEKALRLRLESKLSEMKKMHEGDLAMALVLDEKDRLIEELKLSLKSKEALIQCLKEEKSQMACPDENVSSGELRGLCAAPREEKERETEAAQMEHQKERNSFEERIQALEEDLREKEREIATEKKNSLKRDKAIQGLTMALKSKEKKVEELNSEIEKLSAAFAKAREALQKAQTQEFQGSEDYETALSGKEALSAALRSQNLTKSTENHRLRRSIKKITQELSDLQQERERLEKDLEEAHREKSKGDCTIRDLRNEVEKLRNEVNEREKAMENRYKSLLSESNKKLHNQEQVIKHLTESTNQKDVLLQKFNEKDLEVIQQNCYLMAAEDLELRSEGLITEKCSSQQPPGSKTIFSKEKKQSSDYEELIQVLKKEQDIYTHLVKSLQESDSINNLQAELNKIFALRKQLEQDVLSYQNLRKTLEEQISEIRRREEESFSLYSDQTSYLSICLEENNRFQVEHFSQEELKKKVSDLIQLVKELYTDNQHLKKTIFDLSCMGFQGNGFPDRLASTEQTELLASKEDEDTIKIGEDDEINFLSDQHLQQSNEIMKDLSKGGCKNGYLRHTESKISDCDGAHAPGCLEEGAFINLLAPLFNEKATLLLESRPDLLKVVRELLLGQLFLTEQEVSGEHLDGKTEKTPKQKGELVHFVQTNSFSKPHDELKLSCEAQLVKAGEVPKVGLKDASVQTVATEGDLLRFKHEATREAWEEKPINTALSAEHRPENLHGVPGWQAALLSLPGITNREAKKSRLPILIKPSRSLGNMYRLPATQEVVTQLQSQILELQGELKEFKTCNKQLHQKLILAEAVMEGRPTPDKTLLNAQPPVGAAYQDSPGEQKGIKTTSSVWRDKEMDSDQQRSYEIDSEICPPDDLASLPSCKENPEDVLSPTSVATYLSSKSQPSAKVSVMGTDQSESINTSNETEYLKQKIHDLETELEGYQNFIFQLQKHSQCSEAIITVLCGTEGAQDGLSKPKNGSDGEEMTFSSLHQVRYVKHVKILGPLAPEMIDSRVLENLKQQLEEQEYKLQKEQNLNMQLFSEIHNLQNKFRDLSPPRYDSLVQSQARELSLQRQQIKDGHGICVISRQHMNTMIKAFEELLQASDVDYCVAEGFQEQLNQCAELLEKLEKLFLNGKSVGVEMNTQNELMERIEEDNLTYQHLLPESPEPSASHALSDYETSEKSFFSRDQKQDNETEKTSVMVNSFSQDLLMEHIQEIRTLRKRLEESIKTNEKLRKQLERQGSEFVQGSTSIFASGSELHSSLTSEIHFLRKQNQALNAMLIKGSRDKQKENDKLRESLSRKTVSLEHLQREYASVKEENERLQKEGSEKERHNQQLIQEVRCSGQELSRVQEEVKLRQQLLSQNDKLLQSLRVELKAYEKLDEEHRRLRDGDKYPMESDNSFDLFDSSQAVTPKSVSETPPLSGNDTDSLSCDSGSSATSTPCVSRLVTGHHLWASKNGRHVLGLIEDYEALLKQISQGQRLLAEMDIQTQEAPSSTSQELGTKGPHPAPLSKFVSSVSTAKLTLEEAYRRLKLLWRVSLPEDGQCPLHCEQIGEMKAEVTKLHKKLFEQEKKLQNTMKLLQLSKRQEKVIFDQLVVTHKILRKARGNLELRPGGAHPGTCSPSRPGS

Biological target: GFP::CDK5RAP2 isoform B, full length, wild type (assembled into micron-scale scaffolds with anti-CM2 IgM) (human) (UniProt Q96SN8)
Assay: partitioning into in vitro scaffolds (confocal fluorescence microscopy); 120 nM GFP::CDK5RAP2 assembled with anti-CM2 IgM, 50 nM mCherry, mCherry::HSET or mCherry::HSET(ΔIDR); 50 mM KCl, 25 mM HEPES; partition coefficient of mCherry signal; both purified

B1: mCherry::HSET(ΔIDR), lacking the N-terminal intrinsically disordered region (missing a.a. 2–138) (domain or fragment, UniProt Q9BW19)
chain: MLKGQLCDLNAELKRCRERTQTLDQENQQLQDQLRDAQQQVKALGTERTTLEGHLAKVQAQAEQGQQELKNLRACVLELEERLSTQEGLVQELQKKQVELQEERRGLMSQLEEKERRLQTSEAALSSSQAEVASLRQETVAQAALLTEREERLHGLEMERRRLHNQLQELKGNIRVFCRVRPVLPGEPTPPPGLLLFPSGPGGPSDPPTRLSLSRSDERRGTLSGAPAPPTRHDFSFDRVFPPGSGQDEVFEEIAMLVQSALDGYPVCIFAYGQTGSGKTFTMEGGPGGDPQLEGLIPRALRHLFSVAQELSGQGWTYSFVASYVEIYNETVRDLLATGTRKGQGGECEIRRAGPGSEELTVTNARYVPVSCEKEVDALLHLARQNRAVARTAQNERSSRSHSVFQLQISGEHSSRGLQCGAPLSLVDLAGSERLDPGLALGPGERERLRETQAINSSLSTLGLVIMALSNKESHVPYRNSKLTYLLQNSLGGSAKMLMFVNISPLEENVSESLNSLRFASKVNQCVIGTAQANRK
- binding: no binding (tested: 50 nM)
